The text below walks through data of doi:10.1101/2025.10.15.682653.

Sequences of proteins named here, by UniProt entry; tags and fusion partners are left off. A change or cut given only in a name is not applied to a line headed by its entry.
UniProt Q96EB6, whole entry: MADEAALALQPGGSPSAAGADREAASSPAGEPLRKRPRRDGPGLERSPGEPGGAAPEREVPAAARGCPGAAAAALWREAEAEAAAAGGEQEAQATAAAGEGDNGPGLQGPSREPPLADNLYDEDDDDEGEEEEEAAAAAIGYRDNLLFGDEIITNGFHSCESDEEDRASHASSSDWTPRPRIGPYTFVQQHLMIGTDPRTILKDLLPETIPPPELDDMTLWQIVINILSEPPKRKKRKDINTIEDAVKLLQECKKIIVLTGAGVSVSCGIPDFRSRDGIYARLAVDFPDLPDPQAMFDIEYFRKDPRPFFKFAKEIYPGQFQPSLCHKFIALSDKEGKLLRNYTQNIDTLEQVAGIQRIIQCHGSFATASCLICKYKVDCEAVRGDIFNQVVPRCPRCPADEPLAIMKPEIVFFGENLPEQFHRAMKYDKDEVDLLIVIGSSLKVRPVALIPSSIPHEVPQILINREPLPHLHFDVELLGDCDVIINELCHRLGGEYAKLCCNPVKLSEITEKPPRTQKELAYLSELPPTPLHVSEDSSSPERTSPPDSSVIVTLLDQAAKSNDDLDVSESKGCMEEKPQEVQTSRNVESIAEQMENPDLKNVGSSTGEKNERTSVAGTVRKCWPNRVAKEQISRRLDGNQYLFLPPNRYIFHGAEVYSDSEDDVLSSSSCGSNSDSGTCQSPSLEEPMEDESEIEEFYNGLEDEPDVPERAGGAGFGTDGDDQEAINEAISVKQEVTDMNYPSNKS
UniProt Q92547, whole entry: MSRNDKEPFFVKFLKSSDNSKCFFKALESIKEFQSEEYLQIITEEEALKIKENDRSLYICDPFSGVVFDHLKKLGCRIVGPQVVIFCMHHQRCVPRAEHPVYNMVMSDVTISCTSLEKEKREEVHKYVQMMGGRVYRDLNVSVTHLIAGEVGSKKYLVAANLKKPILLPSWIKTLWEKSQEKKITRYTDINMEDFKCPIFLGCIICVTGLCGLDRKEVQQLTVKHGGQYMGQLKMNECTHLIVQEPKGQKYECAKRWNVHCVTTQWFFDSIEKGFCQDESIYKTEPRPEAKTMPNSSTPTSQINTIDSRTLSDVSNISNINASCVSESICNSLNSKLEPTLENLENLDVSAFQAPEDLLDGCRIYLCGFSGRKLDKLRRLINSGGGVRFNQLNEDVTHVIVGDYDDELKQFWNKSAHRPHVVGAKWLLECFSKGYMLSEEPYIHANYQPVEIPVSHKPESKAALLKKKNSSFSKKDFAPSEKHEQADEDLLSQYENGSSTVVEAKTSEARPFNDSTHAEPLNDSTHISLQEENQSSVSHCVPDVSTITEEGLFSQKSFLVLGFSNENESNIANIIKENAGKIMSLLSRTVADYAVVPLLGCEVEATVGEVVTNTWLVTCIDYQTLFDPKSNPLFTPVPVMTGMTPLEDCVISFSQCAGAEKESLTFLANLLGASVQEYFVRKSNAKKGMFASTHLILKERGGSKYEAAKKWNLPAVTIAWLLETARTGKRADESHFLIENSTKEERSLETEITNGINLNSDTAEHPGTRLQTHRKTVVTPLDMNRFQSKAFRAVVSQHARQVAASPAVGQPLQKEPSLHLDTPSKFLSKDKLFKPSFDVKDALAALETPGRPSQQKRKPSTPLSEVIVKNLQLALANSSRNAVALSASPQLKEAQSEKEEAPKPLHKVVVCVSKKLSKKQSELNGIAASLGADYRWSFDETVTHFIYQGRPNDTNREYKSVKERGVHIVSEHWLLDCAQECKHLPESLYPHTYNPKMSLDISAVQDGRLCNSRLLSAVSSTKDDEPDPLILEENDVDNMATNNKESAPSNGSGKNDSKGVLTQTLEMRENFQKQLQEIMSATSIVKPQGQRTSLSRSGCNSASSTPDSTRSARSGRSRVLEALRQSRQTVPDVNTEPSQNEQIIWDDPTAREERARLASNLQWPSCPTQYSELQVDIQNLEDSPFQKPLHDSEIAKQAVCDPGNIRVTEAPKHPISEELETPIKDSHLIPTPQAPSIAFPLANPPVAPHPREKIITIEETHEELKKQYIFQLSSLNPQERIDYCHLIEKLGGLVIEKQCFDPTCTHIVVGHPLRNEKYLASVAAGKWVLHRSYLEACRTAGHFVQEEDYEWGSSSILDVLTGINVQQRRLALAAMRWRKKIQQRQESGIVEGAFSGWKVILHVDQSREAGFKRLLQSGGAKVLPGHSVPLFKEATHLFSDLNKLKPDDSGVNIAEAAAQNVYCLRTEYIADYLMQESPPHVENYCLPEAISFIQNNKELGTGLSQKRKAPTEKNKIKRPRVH
UniProt Q6ZQF0, whole entry: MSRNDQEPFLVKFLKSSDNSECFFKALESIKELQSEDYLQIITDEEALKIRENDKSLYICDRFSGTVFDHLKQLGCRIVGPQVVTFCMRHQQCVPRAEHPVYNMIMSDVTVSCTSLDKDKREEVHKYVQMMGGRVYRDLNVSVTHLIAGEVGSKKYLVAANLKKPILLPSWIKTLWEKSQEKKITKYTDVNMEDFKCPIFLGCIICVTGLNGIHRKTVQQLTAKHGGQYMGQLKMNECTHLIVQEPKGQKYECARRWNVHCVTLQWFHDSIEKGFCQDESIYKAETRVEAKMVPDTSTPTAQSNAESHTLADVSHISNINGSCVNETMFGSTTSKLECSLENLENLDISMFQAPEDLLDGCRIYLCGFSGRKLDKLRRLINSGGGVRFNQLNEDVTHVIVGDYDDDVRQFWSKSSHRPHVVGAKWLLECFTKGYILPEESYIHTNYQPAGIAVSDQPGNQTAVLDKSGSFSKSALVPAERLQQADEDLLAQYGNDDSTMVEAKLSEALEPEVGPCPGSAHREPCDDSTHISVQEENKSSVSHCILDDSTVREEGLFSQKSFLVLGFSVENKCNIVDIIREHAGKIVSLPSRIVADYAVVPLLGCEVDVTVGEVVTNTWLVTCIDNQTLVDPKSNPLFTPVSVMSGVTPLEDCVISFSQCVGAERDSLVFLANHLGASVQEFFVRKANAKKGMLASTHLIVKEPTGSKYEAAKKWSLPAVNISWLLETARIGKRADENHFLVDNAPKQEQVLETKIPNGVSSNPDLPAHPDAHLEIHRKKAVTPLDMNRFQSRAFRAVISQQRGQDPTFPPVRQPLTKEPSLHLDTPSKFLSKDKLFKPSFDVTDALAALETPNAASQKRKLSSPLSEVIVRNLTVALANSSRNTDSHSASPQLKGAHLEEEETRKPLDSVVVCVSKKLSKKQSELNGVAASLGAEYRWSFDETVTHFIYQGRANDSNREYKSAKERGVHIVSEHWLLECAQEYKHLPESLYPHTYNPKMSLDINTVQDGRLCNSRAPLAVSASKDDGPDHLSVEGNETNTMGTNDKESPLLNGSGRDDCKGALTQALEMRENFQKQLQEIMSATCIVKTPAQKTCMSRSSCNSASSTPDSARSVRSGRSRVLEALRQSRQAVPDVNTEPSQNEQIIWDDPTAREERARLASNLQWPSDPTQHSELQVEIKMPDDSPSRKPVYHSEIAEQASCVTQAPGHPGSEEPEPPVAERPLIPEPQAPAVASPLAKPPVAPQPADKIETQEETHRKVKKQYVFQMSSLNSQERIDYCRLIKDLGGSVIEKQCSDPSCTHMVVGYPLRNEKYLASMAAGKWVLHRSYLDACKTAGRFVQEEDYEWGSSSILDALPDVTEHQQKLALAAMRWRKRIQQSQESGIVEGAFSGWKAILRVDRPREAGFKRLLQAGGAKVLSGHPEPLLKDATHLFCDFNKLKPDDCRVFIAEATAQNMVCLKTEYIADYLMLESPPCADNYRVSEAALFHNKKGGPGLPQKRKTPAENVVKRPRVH
UniProt Q8VDP4, whole entry: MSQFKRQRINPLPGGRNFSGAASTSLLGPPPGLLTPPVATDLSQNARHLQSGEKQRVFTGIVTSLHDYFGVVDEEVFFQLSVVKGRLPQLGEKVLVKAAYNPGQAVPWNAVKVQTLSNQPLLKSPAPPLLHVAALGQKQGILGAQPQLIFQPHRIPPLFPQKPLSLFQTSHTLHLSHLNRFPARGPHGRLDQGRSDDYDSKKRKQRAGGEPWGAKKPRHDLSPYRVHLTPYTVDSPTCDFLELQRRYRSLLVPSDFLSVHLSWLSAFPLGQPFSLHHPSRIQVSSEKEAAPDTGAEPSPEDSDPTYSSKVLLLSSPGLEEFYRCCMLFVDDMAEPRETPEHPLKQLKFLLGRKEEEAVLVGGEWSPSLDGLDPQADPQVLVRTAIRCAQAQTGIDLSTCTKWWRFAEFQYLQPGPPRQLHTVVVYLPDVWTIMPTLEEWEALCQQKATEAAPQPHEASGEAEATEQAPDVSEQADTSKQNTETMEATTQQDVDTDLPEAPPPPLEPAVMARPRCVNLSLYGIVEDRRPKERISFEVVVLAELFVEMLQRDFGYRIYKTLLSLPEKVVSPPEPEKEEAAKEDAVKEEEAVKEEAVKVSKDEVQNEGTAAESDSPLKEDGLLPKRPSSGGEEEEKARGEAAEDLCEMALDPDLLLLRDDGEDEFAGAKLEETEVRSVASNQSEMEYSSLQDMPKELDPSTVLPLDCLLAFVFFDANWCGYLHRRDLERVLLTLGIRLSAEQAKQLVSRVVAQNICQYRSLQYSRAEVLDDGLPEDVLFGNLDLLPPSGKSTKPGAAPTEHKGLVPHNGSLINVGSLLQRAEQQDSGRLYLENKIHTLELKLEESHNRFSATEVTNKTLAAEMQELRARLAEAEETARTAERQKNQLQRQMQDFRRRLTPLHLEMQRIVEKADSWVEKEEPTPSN
UniProt O96017, whole entry: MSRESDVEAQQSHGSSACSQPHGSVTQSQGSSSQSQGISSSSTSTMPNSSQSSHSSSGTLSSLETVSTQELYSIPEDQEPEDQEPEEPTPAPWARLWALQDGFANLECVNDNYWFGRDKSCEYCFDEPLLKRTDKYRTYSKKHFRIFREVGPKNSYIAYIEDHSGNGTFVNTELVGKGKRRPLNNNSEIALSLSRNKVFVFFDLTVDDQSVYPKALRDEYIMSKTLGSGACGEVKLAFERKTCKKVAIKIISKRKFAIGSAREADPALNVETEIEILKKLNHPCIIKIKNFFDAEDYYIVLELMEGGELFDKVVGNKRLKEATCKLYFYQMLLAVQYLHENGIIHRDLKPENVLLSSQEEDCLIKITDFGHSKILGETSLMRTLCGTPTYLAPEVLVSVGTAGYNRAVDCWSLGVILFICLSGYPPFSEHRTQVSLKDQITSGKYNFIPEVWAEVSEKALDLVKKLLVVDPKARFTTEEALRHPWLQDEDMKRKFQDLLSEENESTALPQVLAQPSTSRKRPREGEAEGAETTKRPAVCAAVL
UniProt Q6PD03, whole entry: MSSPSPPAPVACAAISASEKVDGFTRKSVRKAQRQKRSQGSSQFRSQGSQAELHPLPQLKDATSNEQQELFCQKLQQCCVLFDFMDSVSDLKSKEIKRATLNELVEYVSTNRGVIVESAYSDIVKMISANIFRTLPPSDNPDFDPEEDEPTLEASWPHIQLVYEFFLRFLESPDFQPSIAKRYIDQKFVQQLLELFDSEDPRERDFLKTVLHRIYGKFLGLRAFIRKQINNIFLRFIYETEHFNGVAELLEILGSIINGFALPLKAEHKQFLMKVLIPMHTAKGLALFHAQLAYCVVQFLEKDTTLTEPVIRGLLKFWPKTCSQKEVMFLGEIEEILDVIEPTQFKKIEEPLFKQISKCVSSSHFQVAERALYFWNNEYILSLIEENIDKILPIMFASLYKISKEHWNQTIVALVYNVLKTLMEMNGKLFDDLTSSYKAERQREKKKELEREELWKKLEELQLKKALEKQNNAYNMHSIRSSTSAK

Common to all, as to assay: co-IP
Test [1] deals with T1, mSIRT1 (mouse (endogenous in FVB/N female reproductive tract tissue)) (UniProt Q923E4).
T1 sequence: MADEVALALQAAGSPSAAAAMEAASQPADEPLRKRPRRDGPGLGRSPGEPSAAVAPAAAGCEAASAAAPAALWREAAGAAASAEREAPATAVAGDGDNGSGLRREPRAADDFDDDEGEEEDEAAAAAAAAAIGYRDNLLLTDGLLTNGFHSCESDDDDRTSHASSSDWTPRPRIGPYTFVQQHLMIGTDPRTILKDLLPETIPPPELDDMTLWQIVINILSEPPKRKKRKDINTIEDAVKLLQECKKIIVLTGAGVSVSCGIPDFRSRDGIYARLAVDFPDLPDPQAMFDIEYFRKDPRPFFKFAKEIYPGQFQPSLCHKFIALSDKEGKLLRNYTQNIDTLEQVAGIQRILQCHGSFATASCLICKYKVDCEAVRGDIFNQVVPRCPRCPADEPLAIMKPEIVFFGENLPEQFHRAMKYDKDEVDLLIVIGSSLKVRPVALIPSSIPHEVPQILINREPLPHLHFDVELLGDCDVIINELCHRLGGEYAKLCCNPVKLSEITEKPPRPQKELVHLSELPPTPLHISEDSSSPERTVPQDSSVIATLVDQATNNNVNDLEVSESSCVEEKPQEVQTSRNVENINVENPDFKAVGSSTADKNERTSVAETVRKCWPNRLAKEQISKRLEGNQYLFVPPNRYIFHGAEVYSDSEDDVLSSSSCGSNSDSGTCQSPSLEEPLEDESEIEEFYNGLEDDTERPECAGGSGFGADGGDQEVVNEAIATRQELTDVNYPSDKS

The target in test [2] is SIRT1 (human (endogenous in N/Tert-1, HFK, W12, UM-SCC cells and PDX tumours)) (UniProt Q96EB6).
The target of test [3] is mCIP2A (mouse (endogenous in FVB/N female reproductive tract tissue)) (UniProt Q8BWY9).
The target in test [4] is HPV16 E2-S23A (human papillomavirus 16) (UniProt P03120).
Test [5] deals with TOPBP1 (human (endogenous in N/Tert-1, HFK, W12, UM-SCC cells and PDX tumours)) (UniProt Q92547).
The target of test [6] is mTOPBP1 (mouse (endogenous in NIH 3T3 cells and FVB/N female reproductive tract tissue)) (UniProt Q6ZQF0).

Results are given in words; binding and its absence hold for the method and conditions named. In cells and extracts the contact can be indirect. Some entries that bind do so weakly or less than the wild type.

For mDBC1 (from UniProt Q8VDP4 1-922), the binding entry in test [1] was “binds”.

In the case of CHK2 (from UniProt O96017 1-543), the binding entry in test [2] is on record as “binds”.

As to “HPV16 E2 wild type (from UniProt P03120 1-365)”, in test [2], the binding entry is recorded as “binds”.

In the case of mB56α (from UniProt Q6PD03 1-486), in test [3], the binding result is recorded as “binds”.

On to ATR (from UniProt Q13535 1-2644), for which the binding result is recorded as “no binding” in test [4] and “binds” in test [5].

As for mCIP2A (from UniProt Q8BWY9 1-907), the binding result in test [6] is recorded as “binds”.
